These are yes or no findings as the source states them, for the method shown.

Protein sequences, listed by entry. Tags and fused reporters are not part of them. Lines headed by an entry give the natural chain unless they say otherwise; changes in a name come on top. Chains listed by the source or under a name are the forms on record and can include a tag or linker. Residues count along the entry.
CTD2′ (residues 1657 to 1739 of the D. melanogaster Rpb1 C-terminal domain), unphosphorylated (P04052, form named): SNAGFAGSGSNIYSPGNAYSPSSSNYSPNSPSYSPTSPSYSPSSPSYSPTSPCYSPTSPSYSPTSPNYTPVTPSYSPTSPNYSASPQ

This experiment has as its target CTD2′ (residues 1657 to 1739 of the D. melanogaster Rpb1 C-terminal domain), unphosphorylated (D. melanogaster) (UniProt P04052). As to the kind of experiment: SEC-MALS; Superdex S-100 Increase column, 25 mM sodium phosphate pH 7.5, 50 mM NaCl, 4 mM DTT; 20 μl injected, sample concentration 10 mg/ml (concentrated to 1.6 mM); flow 0.5 ml/min; molar mass 8.8 kDa, consistent with a monomer; both purified. In general terms: SEC sorts molecules by how far they enter the pores of the column.

For the substance “CTD2′ (residues 1657 to 1739 of the D. melanogaster Rpb1 C-terminal domain), unphosphorylated (from UniProt P04052 1657-1739) (domain or fragment)”, the binding result is reported as “no binding (tested: 10 mg/ml (1.6 mM) loaded)”.

These data come from PMC12152636.
